# Out of some 340,000 compounds screened, about 6,200 (1.8%) were called active. The shares of active, inactive and inconclusive entries below differ from those in the screen. Calls follow the shape of the dose curve; as a rule, active = well fitted activation curve with a large enough effect; inconclusive = small, poorly fitted or top-dose-only effect; inactive = no such curve, though single readings can be large or run the other way. Where the call is inconclusive, the potency comes from a doubtful curve fit. More than one record can exist for a structure, and the calls need not agree.
# Experiment: A quantitative high throughput screen for small molecules that induce DNA re-replication in SW480 colon adenocarcinoma cells. Also: nearly all actives have a fitted effect of over 55% in size. As to re-replication activation: % of control where 0% means no effect.
# Details: Hoechst DNA content imaging, 48 h; re-replication activation: at 46.1 µM (top of the series) unless noted
# How it was run: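 Image-based DNA-content assay: after two days of treatment, nuclei were labelled with the DNA dye Hoechst and imaged, and hits were compounds raising the count of nuclei showing high fluorescence intensity.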
# Potency is read from the fitted curve at half-maximal effect.
Structure (SMILES),Potency,re-replication activation
Cc1ccc(C)c(OCCn2cc(/C=C(\C#N)C(=O)NCc3ccco3)c3ccccc32)c1,"inconclusive: 14.6 µM [activator, partial curve, poor fit]",–
COC(=O)C=C1CCC2C3CCC4=CC(=O)C(Br)CC4(C)C3C(=O)CC12C (configuration not stated),"inconclusive: 29.1 µM [activator, single point]",–
COc1ccc(OC(=O)c2cc3ccccc3o2)cc1,–,inactive: -0.145% [at 9.22 µM]
COc1ccc(-c2cn(Cc3cccc(OC)c3)nn2)cc1,inactive,–
CCCCC(=O)Nc1ccnc(-c2cccnc2)n1,inactive,–
O=[N+]([O-])c1cc(C(F)(F)F)ccc1NCCCCNS(=O)(=O)c1ccc(Cl)cc1,"inconclusive: 18.4 µM [activator, single point]",–
CS(=O)(=O)N1CCC(C(=O)N2CCN(C(c3ccccc3)c3ccccc3)CC2)CC1,"inconclusive: 0.92 µM [activator, partial curve, poor fit]",–
COc1cc(/C=C/C(=O)O)cc(OC)c1,"inconclusive: 0.116 µM [activator, full curve, poor fit]",–
Cn1c(CNC(=O)C2CCCCC2)cc2cc(Cl)ccc21,"inconclusive: 6.51 µM [activator, single point]",–
Cc1cc2c(C)nc(N/N=C/c3ccccc3)nc2o1,"inconclusive: 9.2 µM [activator, partial curve, poor fit]",–
Cc1ccc(CNC(=O)CNC(=S)N(Cc2ccccc2)Cc2ccccc2F)cc1,inactive,–
CC(C)(C)OC(=O)C[C@@H]1C/C=C\C[C@@H](CC(=O)N(CCO)Cc2ccccc2)C(=O)NC[C@@H](c2ccccc2)OC1=O,inactive,–
CC(=O)Nc1ccccc1N(C)S(=O)(=O)c1ccc(C)cc1,"inconclusive: 23.1 µM [activator, single point]",–
COC1CCC2(C)C(=CCC3C4CC(O)CC4(C)CCC32)C1 (configuration not stated),inactive,–
CCOc1nc2ccccc2cc1C=O,"inconclusive: 5.8 µM [activator, full curve]",–
Cc1cc(-c2ccc(S(=O)(=O)Nc3ccc(C#N)cc3)s2)on1,inactive,–
CCOc1ccc(C(=O)CCCC(=O)c2ccc(OCC)cc2)cc1,"inconclusive: 0.103 µM [activator, full curve, poor fit]",–
COc1cccc(NC(=O)CN(C)C(=O)CC2Sc3ccccc3NC2=O)c1 (configuration not stated),inactive,–
Cn1nnnc1Sc1ncnc2scc(-c3ccccc3)c12,active: 16.4 µM,–
COc1cc(/C=C(\C#N)c2ccccn2)cc(OC)c1O,"inconclusive: 20.6 µM [activator, single point]",–
O=C(CNC(=O)c1ccc(Cl)cc1)NNc1c(F)c(F)cc(F)c1F,inactive,–
Cc1[nH]c2ccccc2c1NC(=O)CN1CCN(c2cccc(C(F)(F)F)c2)CC1,"inconclusive: 23.1 µM [activator, single point]",–
COc1ccc(C)cc1N1C(=N)/C(=C2/Nc3ccccc3S2)C(c2ccccc2)C1=O (configuration not stated),"inconclusive: 23.1 µM [activator, single point]",–
COC(=O)c1cn(CC(=O)N2C(C)CCCC2C)c2ccccc12 (configuration not stated),inactive,–

Structure (SMILES),Potency,re-replication activation
O=C(CSc1nnc(CNC(=O)c2ccc(F)cc2)o1)c1ccccc1,"inconclusive: 2.31 µM [activator, partial curve, poor fit]",–
COc1ccc(NC(=O)c2oc3ccccc3c2NC(=O)c2ccc(OC)c(OC)c2)c(OC)c1,"inconclusive: 0.366 µM [activator, full curve, poor fit]",–
COc1ccc(NS(=O)(=O)c2c(C)cc(C)cc2C)cc1,"inconclusive: 29.1 µM [activator, single point]",–
CCOC(=O)c1c(CN2CCOCC2)n(-c2ccccc2)c2cc(Br)c(OC)cc12,"inconclusive: 23.1 µM [activator, partial curve, poor fit]",–
COc1cc(-c2nc(-c3ccc(NC(=O)c4ccc5c(c4)OCO5)cc3)no2)cc(OC)c1OC,"inconclusive: 32.6 µM [activator, partial curve, poor fit]",–
COc1ccc(CN2CSC(=S)N(Cc3ccc(OC)cc3)C2)cc1,"inconclusive: 29.1 µM [activator, single point]",–
CCC1(C)Cc2c(sc3c2c2ncnn2c2nnc(SCC(=O)NCc4ccco4)n32)CO1 (configuration not stated),"inconclusive: 16.4 µM [activator, partial curve, poor fit]",–
Cc1ccsc1CN(C)CC(=O)Nc1ccc([N+](=O)[O-])cc1Cl,inactive,–
COC(=O)CN(c1cc(Cl)ccc1OC)S(=O)(=O)c1ccc(OC)c(OC)c1,inactive,–
O=C(CN1CCCc2ccccc21)N/N=C/c1ccccc1O,"inconclusive: 18.4 µM [activator, single point]",–
Cc1nc(N2CCN(c3ccccn3)CC2)c2c(C)c(C(=O)Nc3ccc(F)cc3F)sc2n1,"inconclusive: 29.1 µM [activator, single point]",–
CCN1CCN(c2ccc(NC(=O)c3ccc(Cl)c(S(=O)(=O)N4CCCC4)c3)cc2)CC1,"inconclusive: 16.4 µM [activator, single point]",–
COCCNCC#CCOc1ccc(OC)cc1,"inconclusive: 0.58 µM [activator, full curve]",–
CSc1cccc(NS(=O)(=O)c2ccc3c(c2)oc(=O)n3C)c1,inactive,–
COc1ccc(NC(=O)c2cc(-c3ccc(C)o3)nc3ccccc23)c(OC)c1,"inconclusive: 18.4 µM [activator, single point]",–
O=C1CC(NCCN2CCOCC2)C(=O)N1Cc1ccc(N2CCCC2=O)cc1 (configuration not stated),"inconclusive: 2.91 µM [activator, partial curve, poor fit]",–
Cc1ccc(S/C=C\C(=O)c2ccccc2)cc1,"inconclusive: 3.26 µM [activator, full curve, poor fit]",–
CCC1(c2ccc(F)cc2)NC(=O)N(CC(=O)N2c3ccccc3CC2C)C1=O (configuration not stated),inactive,–
CC12C(=O)N(NC(=O)c3ccncc3)C(=O)C1C1C=CC2C1 (configuration not stated),"inconclusive: 14.6 µM [activator, single point]",–
O=C(CSc1nnnn1-c1ccc2c(c1)OCCO2)Nc1nc2c(s1)CCCC2,inactive,–
O=C1N/C(=C\c2ccc(O)cc2)C(=O)c2ccccc21,active: 12.6 µM,–
COc1cc(O)cc2cc3c(c(O)c12)C(=O)CC(C)(O)O3 (configuration not stated),"inconclusive: 18.4 µM [activator, single point]",–
CCN(CC)c1ccc(N)cc1,"inconclusive: 0.092 µM [activator, full curve, poor fit]",–
COc1ccc(/C=C2\CCCC3C2=NC(=S)NC3c2ccc(OC)cc2)cc1 (configuration not stated),active: 18.4 µM,–

Structure (SMILES),Potency,re-replication activation
CCCNC(=O)/C(C#N)=C1\N=C(NC(=O)c2ccco2)c2ccccc21,"inconclusive: 29.1 µM [activator, single point]",–
CCCCCCC(C)OC(=O)c1ccccc1C(=O)O (configuration not stated),inactive,–
CC1CCCCC1NC(=O)c1ccc(NC2=NC3CS(=O)(=O)CC3S2)cc1 (configuration not stated),inactive,–
O=C(CCCCCN1C(=O)[C@@H]2Cc3ccccc3CN2C1=O)Nc1ccccc1F,inactive,–
O=C(CN1CCN(C(c2ccccc2)c2ccccc2)CC1)NC(=O)NCc1ccco1,"inconclusive: 16.4 µM [activator, single point]",–
Cc1ccc(SCCC(=O)OC(C)C(=O)Nc2ccccc2)cc1 (configuration not stated),"inconclusive: 18.4 µM [activator, single point]",–
O=C(CC1NCCc2ccccc21)Nc1ccc(Oc2ccccc2)cc1 (configuration not stated),"inconclusive: 23.1 µM [activator, single point]",–
CCOc1ccc(N(C(=O)/C=C/C(=O)Nc2cc(C)on2)C(C(=O)NC2CCCC2)c2ccccc2C)cc1 (configuration not stated),inactive,–
CC1(C)CC(=O)C2=C(C1)c1c(ccc3ncccc13)NC2c1cccs1 (configuration not stated),"inconclusive: 29.1 µM [activator, single point]",–
O=Cc1ccc(Oc2ccc(F)cc2)nc1,inactive,–
C[C@H]1CN([C@@H](C)CO)C(=O)c2cccc(NC(=O)Nc3ccc(C(F)(F)F)cc3)c2O[C@H]1CN(C)C,"inconclusive: 1.84 µM [activator, partial curve, poor fit]",–
C=C1CCN(Cc2ccccc2)S(=O)(=O)c2ccccc21,"inconclusive: 3.66 µM [activator, single point]",–
C=CCNC(=O)Nc1ccc(Br)cc1Cl,inactive,–
C(=N\N(c1ccccc1)c1ccccc1)/c1ccccn1,"inconclusive: 0.58 µM [activator, full curve, poor fit]",–
O=C(NCc1ccccn1)C1CCN(S(=O)(=O)N2CCC3(CC2)OCCO3)CC1,active: 11.6 µM,–
CCCCc1nc2ccc(S(=O)(=O)O)cc2[nH]1,inactive,–
c1ccc(-c2cc3c(NCC4COc5ccccc5O4)ncnc3s2)cc1 (configuration not stated),active: 18.4 µM,–
COc1cc(CN2CCC(Cc3ccccc3)CC2)cc(OC)c1OC,inactive,–
O=C(CCCOc1ccc(Cl)cc1Cl)N/N=C/c1ccco1,inactive,–
N#Cc1ccccc1Cn1cc(/C=N/Nc2ccc([N+](=O)[O-])cn2)c2ccccc21,inactive,–
COc1cc2ccccc2cc1C(=O)N(CCN(C)C)c1nc2c(OC)ccc(OC)c2s1,"inconclusive: 29.1 µM [activator, single point]",–
CCOC(=O)c1cnc(SCc2nc(N)nc(Nc3ccccc3)n2)nc1N,"inconclusive: 29.1 µM [activator, single point]",–
O=C(Nc1ccc2c(c1)OCCO2)c1ccc(CN2CCOCC2)cc1,inactive,–
Cn1c(=O)[nH]c(=O)c2c1nc(Br)n2C/C=N/NC(=O)c1ccccc1,"inconclusive: 2.91 µM [activator, full curve, poor fit]",–

# As entered above:
# Entry of O=C(CC1NCCc2ccccc21)Nc1ccc(Oc2ccccc2)cc1 (configuration not stated) under Potency: inconclusive: 23.1 µM [activator, single point]
# Entry of COc1cc2ccccc2cc1C(=O)N(CCN(C)C)c1nc2c(OC)ccc(OC)c2s1 under Potency: inconclusive: 29.1 µM [activator, single point]
# Entry of O=C(CN1CCN(C(c2ccccc2)c2ccccc2)CC1)NC(=O)NCc1ccco1 under Potency: inconclusive: 16.4 µM [activator, single point]
# Entry of CCOc1ccc(N(C(=O)/C=C/C(=O)Nc2cc(C)on2)C(C(=O)NC2CCCC2)c2ccccc2C)cc1 (configuration not stated) under Potency: inactive

# — PubChem BioAssay AID624297 (National Center for Advancing Translational Sciences (NCATS), 2012)
